Results: article PMC7333391
These are yes or no findings as the source states them, for the method shown. In cells and extracts the contact can be indirect. Some results given as binding are weak or reduced against the parent protein; the word gives no strength.

Sequences of proteins named here, by UniProt entry; tags and fusion partners are left off. A change or cut given only in a name is not applied to a line headed by its entry. A line that says so, or that is headed by a name, gives the form on record, which may keep a tag or linker. Residues count along the entry.
UniProt P68104: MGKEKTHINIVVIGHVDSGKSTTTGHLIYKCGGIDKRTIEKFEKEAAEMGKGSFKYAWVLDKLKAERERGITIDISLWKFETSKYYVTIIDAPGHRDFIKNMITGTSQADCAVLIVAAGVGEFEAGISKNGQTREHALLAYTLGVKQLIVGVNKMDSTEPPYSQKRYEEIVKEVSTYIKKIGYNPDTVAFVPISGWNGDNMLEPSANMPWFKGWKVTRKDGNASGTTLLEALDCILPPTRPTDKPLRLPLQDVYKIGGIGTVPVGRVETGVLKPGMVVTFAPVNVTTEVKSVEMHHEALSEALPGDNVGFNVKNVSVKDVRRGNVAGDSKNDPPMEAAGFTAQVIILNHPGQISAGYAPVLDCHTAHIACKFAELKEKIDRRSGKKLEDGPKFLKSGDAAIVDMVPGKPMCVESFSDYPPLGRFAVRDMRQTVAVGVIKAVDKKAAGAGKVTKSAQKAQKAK
Myc-tagged eEF1A1-I (residues 1-240; pcDNA3.1-eEF1A1-I): residues 1-240 of P68104
UniProt P80200: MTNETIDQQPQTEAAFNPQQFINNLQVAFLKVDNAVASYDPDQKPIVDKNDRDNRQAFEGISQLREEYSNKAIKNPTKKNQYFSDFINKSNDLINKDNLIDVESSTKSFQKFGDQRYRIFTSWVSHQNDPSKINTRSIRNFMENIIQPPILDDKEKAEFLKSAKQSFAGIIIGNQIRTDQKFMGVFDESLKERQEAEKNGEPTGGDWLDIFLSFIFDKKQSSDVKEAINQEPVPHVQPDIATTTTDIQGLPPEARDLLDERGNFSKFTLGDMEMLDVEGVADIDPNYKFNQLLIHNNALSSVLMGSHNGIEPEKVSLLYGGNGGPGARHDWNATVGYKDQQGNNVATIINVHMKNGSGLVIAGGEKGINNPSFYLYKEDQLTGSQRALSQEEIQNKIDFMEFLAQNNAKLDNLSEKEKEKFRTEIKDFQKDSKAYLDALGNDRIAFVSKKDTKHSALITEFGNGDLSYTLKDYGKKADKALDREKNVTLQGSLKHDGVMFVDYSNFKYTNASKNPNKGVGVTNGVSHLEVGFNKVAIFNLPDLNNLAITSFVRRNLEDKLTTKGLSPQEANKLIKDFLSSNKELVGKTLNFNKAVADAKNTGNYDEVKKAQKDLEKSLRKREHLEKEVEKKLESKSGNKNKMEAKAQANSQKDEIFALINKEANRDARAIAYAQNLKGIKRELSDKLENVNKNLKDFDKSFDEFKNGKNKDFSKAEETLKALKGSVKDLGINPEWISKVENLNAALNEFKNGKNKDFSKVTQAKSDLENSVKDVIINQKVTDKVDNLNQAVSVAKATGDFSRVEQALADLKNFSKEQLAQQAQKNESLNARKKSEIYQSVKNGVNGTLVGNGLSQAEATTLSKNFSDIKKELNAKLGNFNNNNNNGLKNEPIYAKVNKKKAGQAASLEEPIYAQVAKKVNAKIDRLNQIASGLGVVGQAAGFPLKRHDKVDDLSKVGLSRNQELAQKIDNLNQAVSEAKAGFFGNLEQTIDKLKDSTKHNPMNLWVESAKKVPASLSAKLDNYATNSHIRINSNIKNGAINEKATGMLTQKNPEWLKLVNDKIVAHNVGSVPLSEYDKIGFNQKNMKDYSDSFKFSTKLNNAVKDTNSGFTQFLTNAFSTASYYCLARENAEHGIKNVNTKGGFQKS
UniProt Q05655: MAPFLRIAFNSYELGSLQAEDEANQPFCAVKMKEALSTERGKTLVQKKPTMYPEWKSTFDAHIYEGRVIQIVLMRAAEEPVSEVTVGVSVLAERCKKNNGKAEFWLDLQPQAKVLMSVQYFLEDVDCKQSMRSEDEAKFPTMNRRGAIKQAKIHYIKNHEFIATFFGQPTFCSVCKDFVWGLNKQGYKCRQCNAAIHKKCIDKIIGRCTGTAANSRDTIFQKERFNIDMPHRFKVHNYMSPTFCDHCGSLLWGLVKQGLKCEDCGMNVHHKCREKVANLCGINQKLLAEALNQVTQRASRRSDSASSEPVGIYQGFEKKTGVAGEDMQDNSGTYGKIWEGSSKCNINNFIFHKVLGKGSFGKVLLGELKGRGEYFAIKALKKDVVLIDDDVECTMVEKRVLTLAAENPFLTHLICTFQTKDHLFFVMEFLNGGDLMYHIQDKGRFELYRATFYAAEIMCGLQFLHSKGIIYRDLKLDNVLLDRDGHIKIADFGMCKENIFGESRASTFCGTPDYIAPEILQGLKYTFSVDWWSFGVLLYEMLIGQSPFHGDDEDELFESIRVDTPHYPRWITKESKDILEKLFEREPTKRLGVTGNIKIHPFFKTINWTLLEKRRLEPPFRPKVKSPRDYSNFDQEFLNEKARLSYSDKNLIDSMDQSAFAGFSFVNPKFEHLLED

Columns and labels:
[1] = molecular target: Myc-tagged eukaryotic translation elongation factor 1-alpha 1 (pcDNA3.1-Myc-eEF1A1) (UniProt P68104); assay: co-IP; lysates of AGS cells (untransfected or overexpressing Myc-tagged eEF1A1 or its segments) infected with H. pylori NCTC11637 or NCTC11637ΔcagA; primary antibody and protein A/G Plus-Agarose overnight at 4 °C; western blot with anti-CagA and anti-Myc or anti-eEF1A1
[2] = molecular target: eukaryotic translation elongation factor 1-alpha 1, endogenous in AGS cells (human (endogenous in AGS)) (UniProt P68104); assay: as above
[3] = molecular target: Myc-tagged eEF1A1-I (residues 1-240; pcDNA3.1-eEF1A1-I) (UniProt P68104); assay: as above
[4] = molecular target: eukaryotic translation elongation factor 1-alpha 1, endogenous in AGS cells (human (endogenous in AGS)) (UniProt P68104); assay: co-IP; precipitates compared with and without CagA; cells and precipitating antibody not told for this experiment

binding [4] | Substance | binding [1] | binding [2] | binding [3]
 | Cytotoxin-associated gene A protein (CagA) of H. pylori NCTC11637, delivered by infection (from UniProt P80200 1-1147) | binds | binds | binds
binds | protein kinase Cδ (PKCδ) (from UniProt Q05655 1-676) (enzyme) |  |  | 
